These are yes or no findings as the source states them, for the method shown. Some entries that bind do so weakly or less than the wild type.
Target: wheat (Triticum aestivum) acetyl-CoA carboxylase, 220-kDa biotinylated polypeptide (wheat (Triticum aestivum))
Test: Western blot of leaf, chloroplast and wheat germ proteins probed with 35S-streptavidin

binding: binds
Substance: streptavidin (from UniProt P22629 37-163)
